According to PubChem BioAssay AID504444 (National Center for Advancing Translational Sciences (NCATS), 2011):
About 7,500 (2.1%) of roughly 360,000 compounds were called active. This list was built around the results that the source calls inconclusive (neither active nor inactive); the mix of calls is not that of the screen. Calls follow the shape of the dose curve; as a rule, active = well fitted inhibition curve with a large enough effect; inconclusive = small, poorly fitted or top-dose-only effect, or effect the other way; inactive = flat fitted curve, though single readings scatter. Potencies beside an inconclusive call are fits to weak or partial responses and may not hold up.
% is scaled to controls: 0 for no effect and ±100 for the full control effect; potency is read from the fitted curve at half-maximal effect.

Assay: Nrf2 qHTS screen for inhibitors; also: nearly all actives have a fitted effect of over 60% in size
Conditions: A549 ARE-Fluc reporter, luciferase luminescence, 18-24 h; activity change, negative = inhibition: at 46 µM (top of the series)
Method in brief: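 Cells were seeded and rested 2 h, then exposed to compounds for 18-24 h. CellTiter-Fluor was read first as a viability measure. BugLite was added 15 min before the final luminescent read of ARE-luciferase activity in A549 cells.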
With `COc1ccccc1NC(=O)CN1C(=O)C(c2ccc(F)cc2)=NC12CCCCC2` the Potency was active: 16.4 µM. With `COc1ccc(S(=O)(=O)Nc2c(C(=O)O)[nH]c3ccccc23)cc1` the “activity change, negative = inhibition” value was inactive: 14.8%. In the case of `NC(=O)CC(NC(=O)c1ccccc1)c1ccc(N2CCN(c3ccc(F)cc3)CC2)c([N+](=O)[O-])c1` (stereo not given), the Potency is reported as active: 20.6 µM. In the case of `Cc1c(C(=O)NCc2ccc3c(c2)OCO3)oc2ccc(S(=O)(=O)N3CCC(C)CC3)cc12`, the Potency is reported as inconclusive: 23.1 µM [falling, single point]. For `CCOc1ccc(NC(=O)c2cc3c(C)nc4ccccc4c3o2)cc1`, the “activity change, negative = inhibition” value was inactive: -23%. In the case of `O=c1oc2ccccc2c(Nc2cccc3ccccc23)c1[N+](=O)[O-]`, the Potency is reported as inconclusive: 16.4 µM [falling, partial curve]. For `CCc1ccccc1Nc1nn2c(=O)c3ccc(C(=O)NC(C)C)cc3nc2s1`, the Potency was inconclusive: 6.51 µM [activator, partial curve]. With `O=[N+]([O-])c1ccc(NS(=O)(=O)c2cccc3cccnc23)cc1` the Potency was inconclusive: 32.6 µM [falling, single point]. In the case of `CC(C)C(c1nnnn1C1CCCC1)N1c2ccccc2CC1C` (stereo not given), the Potency is reported as inconclusive: 14.6 µM [falling, partial curve, poor fit]. For `CCCCN(C(=O)c1cccc(C)c1)c1c(N)n(CCC)c(=O)[nH]c1=O`, the Potency was inconclusive: 18.4 µM [falling, single point]. With `CC(Oc1ccc(Cl)cc1Cl)c1nc(-c2ccccn2)no1` (stereo not given) the Potency was inconclusive: 23.1 µM [activator, partial curve, poor fit]. With `O=C(c1ccc(Cl)cc1)C1CCN(C(=O)C2CC2)CC1` the Potency was inconclusive: 23.1 µM [falling, single point]. With `O=C(Cn1c(=O)n(Cc2ccco2)c(=O)c2oc3ccccc3c21)Nc1ccccc1` the Potency was inconclusive: 14.6 µM [activator, partial curve]. With `COc1ccc(N2Cc3ccccc3C2=O)cc1` the Potency was inconclusive: 0.411 µM [activator, full curve]. For `COC(=O)CSc1nc2cc(OC)ccc2cc1C#N`, the Potency was inconclusive: 20.6 µM [activator, partial curve]. With `COc1ccc(OC)c(S(=O)(=O)N2CCN(c3ncccn3)CC2)c1` the Potency was inconclusive: 7.31 µM [falling, partial curve]. For `COC(=O)CSc1ncnc2c1sc1nc3c(cc12)COC(C)(C)C3`, the Potency was active: 2.91 µM. For `COc1cc(-c2[nH]ncc2CN2CCc3sccc3C2)cc(OC)c1OC`, the Potency was inconclusive: 29.1 µM [falling, single point]. For `Cc1nn2c(COc3ccc(NC(=O)C(C)C)cc3)nnc2c2ccccc12`, the Potency was inconclusive: 16.4 µM [falling, partial curve, poor fit]. For `COc1cccc(NC(=O)C2CCC(CNS(=O)(=O)c3csc(C(N)=O)c3)CC2)c1` (stereo not given), the “activity change, negative = inhibition” value was inactive: 0%. With `COc1cccc(CNc2ccc3[nH]c(=O)[nH]c3c2)c1OCc1ccccc1F` the “activity change, negative = inhibition” value was inactive: -6.95%. For `C/C(=N\NC(=O)c1cc(-c2cccs2)nc2ccccc12)c1ccccn1`, the Potency was active: 2.06 µM. For `O=C(NC(=S)Nn1cnc2c(cnn2-c2ccccc2)c1=O)c1ccccc1`, the “activity change, negative = inhibition” value was inactive: -8.92%. In the case of `CCCS(=O)(=O)c1c(S(=O)(=O)CCC)c2c(N)cccn2c1C(=O)OC`, the “activity change, negative = inhibition” value is reported as inactive: -4.93%. With `CS(=O)(=O)c1ncc(Cl)c(C(=O)Nc2ccc3ccccc3c2)n1` the “activity change, negative = inhibition” value was inactive: -11.5%. In the case of `CN(CC(=O)Nc1cccc(F)c1)C(=O)CCCNC(=O)c1ccc(Cl)cc1`, the Potency is reported as inconclusive: 20.6 µM [activator, single point]. With `COc1ccc(O)c(C(=O)C2c3ccccc3C(=O)N2c2ccc(C)cc2)c1` (stereo not given) the Potency was inconclusive: 23.1 µM [activator, single point]. With `O=C1NC(c2ccccc2Br)=N/C1=C\c1ccco1` the “activity change, negative = inhibition” value was inactive: 16.8%. For `CCOc1cc(S(=O)(=O)n2ccnc2)ccc1Br`, the Potency was inconclusive: 0.103 µM [activator, full curve, poor fit]. In the case of `N/C(=N\OC(=O)c1ccccc1)c1ccncc1`, the Potency is reported as inconclusive: 29.1 µM [activator, single point]. With `O=[N+]([O-])c1ccc(-c2csc(N3CCCCCC3)n2)cc1` the Potency was inconclusive: 3.66 µM [activator, partial curve, poor fit]. For `COc1ccc(NC(=O)c2c(F)cccc2F)cc1S(=O)(=O)Nc1ccc(Br)cc1`, the Potency was inconclusive: 18.4 µM [falling, single point]. In the case of `CCOc1cc(/C=C/c2ccc3cccc([N+](=O)[O-])c3n2)ccc1OCC(=O)N(C)C`, the Potency is reported as inconclusive: 20.6 µM [falling, single point]. With `Cc1ccc(S(=O)(=O)NCCCCC(NC(=O)OC(C)(C)C)C(=O)O)cc1` (stereo not given) (tested in a mixture with another compound) the Potency was inconclusive: 2.31 µM [activator, partial curve, poor fit]. For `O=C(Nc1ccc(F)c(F)c1)c1cnc(-c2ccccc2)nc1-c1ccccc1`, the Potency was inconclusive: 10.3 µM [falling, partial curve]. For `Cc1ccc(C)c(NC(=S)NCCc2c[nH]c3ccccc23)c1`, the Potency was inconclusive: 23.1 µM [falling, single point]. For `COc1ccc(Br)c(-c2nnc(CS(=O)(=O)c3ccccc3)o2)c1`, the Potency was inconclusive: 14.6 µM [activator, partial curve]. In the case of `COc1ccc(C(=O)n2cnc3ccccc32)cc1[N+](=O)[O-]`, the Potency is reported as inconclusive: 2.59 µM [activator, partial curve, poor fit]. For `FC(F)(F)c1cnc(N2CCCN(C(=S)Nc3ccccc3)CC2)c(Cl)c1`, the Potency was inconclusive: 20.6 µM [falling, single point]. With `CC(=O)N1CCC(N(C(=O)Nc2ccc(C)c(C)c2)C2CCCC2)CC1` the Potency was inconclusive: 1.64 µM [activator, full curve, poor fit]. With `O=C(NCc1ccccc1Br)c1cccc2c1C(=O)c1ccc(-c3ccc(OC(F)(F)F)cc3)cc1S2(=O)=O` the Potency was inconclusive: 29.1 µM [activator, single point]. In the case of `CCc1c(Nc2ccccc2C)nc(N)[nH]c1=O`, the Potency is reported as inconclusive: 16.4 µM [falling, partial curve, poor fit]. With `COc1cccc(N2CCN(C(=O)c3cnn(-c4ccccc4Cl)c3C3CCN(C(=O)OC(C)(C)C)CC3)CC2)c1` the Potency was inconclusive: 23.1 µM [falling, single point]. With `CC(=O)c1ccc(NS(=O)(=O)c2cc3c(cc2C)N(C)CCO3)cc1` the “activity change, negative = inhibition” value was inactive: -29%. With `N#Cc1ccc(/C=C/C(=O)c2cccnc2)cc1` the “activity change, negative = inhibition” value was inactive: 7.09%. In the case of `CCCCN(CCCC)S(=O)(=O)c1ccc(NS(=O)(=O)c2ccc(NC(C)=O)cc2)cc1`, the Potency is reported as active: 16.4 µM. For `CCOc1ccc2[nH]c(=O)c(C(c3nnnn3Cc3ccco3)N3CCC(C)CC3)cc2c1` (stereo not given), the Potency was inconclusive: 0.0731 µM [activator, full curve, poor fit]. For `Cc1cc(Cl)ccc1C(=O)C1CCCN(C(=O)c2ccc3ncccc3c2)C1` (stereo not given), the Potency was inconclusive: 29.1 µM [falling, partial curve, poor fit]. For `COc1cccc(C(=O)/C(C#N)=N/Nc2cccc(-c3ccnc(C)n3)c2)c1`, the Potency was inconclusive: 11.6 µM [falling, partial curve]. For `O=C(Nc1ccc(SC(F)F)cc1)c1cc(-c2ccncc2)nc2ccccc12`, the “activity change, negative = inhibition” value was inactive: 2.81%. With `CCOC(=O)c1sc2nc(C)nc(NCCc3ccccn3)c2c1C` the Potency was inconclusive: 14.6 µM [falling, partial curve]. In the case of `CC(C)(C)Cc1nnc(NS(C)(=O)=O)s1`, the Potency is reported as inconclusive: 2.59 µM [activator, single point]. With `CCCn1c(=O)c(C(=O)NCc2ccco2)c(O)c2ccccc21` the Potency was inconclusive: 29.1 µM [activator, partial curve, poor fit]. With `CCOC(=O)C1(CCc2ccccc2)CCN(C(=O)CCn2cnnn2)CC1` the Potency was inconclusive: 29.1 µM [activator, single point]. With `CN(C(=O)CSc1ncnc2sccc12)C1CCCCC1` the Potency was inconclusive: 5.8 µM [activator, partial curve]. With `CCOC(=O)c1ccc2c(c1)nc(COc1ccc3ccccc3c1)n2CC` the Potency was inconclusive: 20.6 µM [falling, single point]. In the case of `CCCC/C=C/[C@H](C)[C@@](C)(COC(=O)c1ccc(Br)cc1)Cc1ccccc1`, the “activity change, negative = inhibition” value is reported as inactive: 10%. With `CCC(=O)N(Cc1cc(=O)[nH]c2ccccc12)c1ccccc1` the “activity change, negative = inhibition” value was inactive: 2.59%. With `CC(=O)c1ccc(N2CCN(C(=O)C3CCN(S(=O)(=O)c4ccc5c(c4)CC(C)N5C(=O)C4CC4)CC3)CC2)cc1` (stereo not given) the Potency was inconclusive: 20.6 µM [falling, partial curve]. With `O=C(Nc1ccc2c(c1)OCO2)N1CCN(S(=O)(=O)c2ccc(Cl)cc2)CC1` the Potency was inconclusive: 20.6 µM [activator, single point]. In the case of `CCCC1(C(=O)OC)NC(c2cccc(F)c2)C2C(=O)N(CC)C(=O)C21` (stereo not given), the Potency is reported as inconclusive: 6.51 µM [activator, partial curve, poor fit]. In the case of `COC(CNC(=O)C1CCCN1C(=O)OCc1ccccc1)OC` (stereo not given), the “activity change, negative = inhibition” value is reported as inactive: -9.21%. For `CCc1cc(C(=O)COc2ccccc2F)c(O)cc1O`, the Potency was inconclusive: 0.651 µM [falling, partial curve, poor fit]. With `Cn1c(=O)c2ccccc2n(Cc2ccccc2Cl)c1=O` the Potency was inconclusive: 14.6 µM [activator, partial curve, poor fit]. For `O=C(NCC1CCCO1)c1ccc(Cn2c(=S)[nH]c3ccccc3c2=O)cc1` (stereo not given), the Potency was inconclusive: 23.1 µM [falling, partial curve, poor fit].
